Data as given in PubChem BioAssay AID504784 (Drosophila RNAi Screening Center, 2011)
The screen tested about 17,000 reagents; shown is a random part of those with a known target gene and a result. 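Each column is one replicate's B-score; the combined score over replicates was not deposited, so single values may mislead.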 Names joined by + are all predicted targets of the reagent.

Test: 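Fly genes whose silencing alters how much lipid cells keep in droplets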 (primary screen)
Cells: Drosophila Kc167 embryonic cells
Knock-down reagent: long dsRNA against Drosophila genes, about 250 ng dsRNA per well
Time to read-out: 4 days
Conditions: cells fed 400 µM oleic acid bound to BSA
Detection: 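Microscope images give a droplet-to-nucleus area ratio, taken as log and converted to a screen-wide B-score; higher values mean greater lipid storage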
Scale: droplet/nuclear area B-score: higher = more stored lipid (overstorage)

gene	DRSC id	droplet/nuclear area B-score, replicate 1	droplet/nuclear area B-score, replicate 2	droplet/nuclear area B-score, replicate 3
CG14546	DRSC14890	0.681	1.32	
CG12316	DRSC09879	-0.132	0.00588	-0.673
lost	DRSC12002	-1.82	-0.886	
lost	DRSC12234	0.521	-2.38	1.57
lost	DRSC21987	3.46	-1.78	
CG14142	DRSC10145	-0.0251	1.01	
sphinx2	DRSC22188	-0.173	-0.734	
twy (twitchy)	DRSC10562	-0.0217	-1.43	
MTA1-like (Metastasis associated 1-like)	DRSC12382	-5.12	-2.98	
MTA1-like (Metastasis associated 1-like)	DRSC22022	-0.621	0.567	
AstA-R1 (Allatostatin A receptor 1)	DRSC17278	-0.258	-0.779	
AstA-R1 (Allatostatin A receptor 1)	DRSC17727	1.12	-0.0595	
CG30344	DRSC22510	0.00613		
Grl65a (Gustatory receptor-like 65a)	DRSC08837	-0.806	-0.632	
Sod2 (Superoxide dismutase 2 (Mn))	DRSC07554	-2.14	-1.47	
CG5521	DRSC15828	0.699	-0.33	
CG13218	DRSC06340	-1.06	-0.123	
CG14710	DRSC14933	-3.98	-7.22	
CG14805	DRSC18554	-1.16	0.0742	
CG18449	DRSC06754	-0.487	-0.664	
5-HT2B (5-hydroxytryptamine (serotonin) receptor 2B)	DRSC16360	-0.236	-0.652	
5-HT2B (5-hydroxytryptamine (serotonin) receptor 2B)	DRSC16362	-0.101	1.12	
CG9344	DRSC04541	-0.23	0.259	
SCOT (Succinyl-CoA:3-ketoacid CoA transferase)	DRSC08186	0.00334	-0.521	
Raf (Raf oncogene)	DRSC18821	0.728	1.89	
Raf (Raf oncogene)	DRSC23311	0.169	0.151	
CG1648	DRSC06610	0.524	-0.758	-0.796
Nup358 (Nucleoporin 358kD)	DRSC14410	5.22	2.22	
tst + CG10375	DRSC14237	-0.109	0.52	
CG14421	DRSC17918	1.04	-0.533	
SmD3 (Small ribonucleoprotein particle protein SmD3)	DRSC07553	1.57	-0.817	
CG15605	DRSC06558	-0.314	-0.473	
Fas3 (Fasciclin 3)	DRSC03326	3.71	2.37	
Fas3 (Fasciclin 3)	DRSC22776	-1.82	-0.0119	
Ugt316A1 (UDP-glycosyltransferase family 316 member A1)	DRSC10376	0.669	0.818	
fz3 (frizzled 3)	DRSC18779	1.19	1.04	
CG10019	DRSC00279	0.706	1.17	
Cp36 (Chorion protein 36)	DRSC18452	0.115	-0.492	
Hacd2 (3-hydroxyacyl-CoA dehydratase 2)	DRSC03181	0.0852	1.34	
aus (argus)	DRSC13471	-0.371	0.481	
aus (argus)	DRSC13473	0.57	2.88	
aus (argus)	DRSC15157	2.67	5.4	
CG1622	DRSC19745	1.36	0.384	-0.824
CG10343	DRSC02041	-2.37	-0.0294	
CG9030	DRSC20139	-0.0062	1.11	
mthl14 (methuselah-like 14)	DRSC07865	0.443	-0.134	
nwk (nervous wreck)	DRSC10442	1.23	-0.0243	
temp (tempura)	DRSC18271	0.812	1.37	
Orcokinin	DRSC04202	-0.0883	-0.27	
Gagr (Gag-related)	DRSC10441	0.00509	0.728	0.013
CG32639	DRSC18972	-1.23	-1.38	
CG15878	DRSC08486	0.237	2.46	
PIG-T (Phosphatidylinositol glycan anchor biosynthesis class T)	DRSC17774	0.316	-0.721	
CG31661	DRSC00296	-0.815	0.694	
by (blistery)	DRSC16482	2.24	1.24	
CG1946	DRSC06804	1.61	0.108	
Snr1 (Snf5-related 1)	DRSC12369	2.48	0.286	
UQCR-C2 (Ubiquinol-cytochrome c reductase core protein 2)	DRSC10405	4.4	3.63	
grnd (grindelwald)	DRSC02020	-0.799	-0.87	
GluProRS (Glutamyl-prolyl-tRNA synthetase)	DRSC14095	0.145	2.16	
sff (sugar-free frosting)	DRSC10590	1.23	0.155	-0.318
p-cup (presidents-cup)	DRSC19513	1.26	1.44	
Cyp9b1 (Cytochrome P450 9b1)	DRSC07389	1.06	0.171	
lncRNA:iab4 (long non-coding RNA:iab4)	DRSC22331	-0.0492	0.675	
PsGEF (Protostome-specific GEF)	DRSC18596	-1.36	0.68	
CG3632	DRSC19871	1.13	-0.927	-0.424
ord (orientation disruptor)	DRSC04706	-0.864	-0.261	
TBC1D23 (TBC1 domain family member 23)	DRSC00657	1.8	0.657	
CG33791 + CG12105 + CG18170	DRSC08387	-0.34	-1.22	
tgy (twiggy)	DRSC20045	1.12	0.694	
DCP1 (Decapping protein 1)	DRSC04091	2.18	-0.787	
CG14635	DRSC17945	-0.631	-0.917	
Gr22f (Gustatory receptor 22f)	DRSC00076	2	-1.16	
CG10638	DRSC09762	-0.764	-1.25	
CG16984	DRSC08500	0.957	-0.0476	
Pi4KIIalpha (Phosphatidylinositol 4-kinase II alpha)	DRSC12322	-4.38	1.27	
Pi4KIIalpha (Phosphatidylinositol 4-kinase II alpha)	DRSC12323	-0.309	-0.564	
tapas	DRSC05950	-0.907	0.652	
fz4 (frizzled 4)	DRSC18780	-0.277	-1.82	
Hecw (Hecw ubiquitin protein ligase)	DRSC18261	0.853	1.06	-0.115
Hecw (Hecw ubiquitin protein ligase)	DRSC18276	1.49	0.414	0.396
TfIIFbeta (Transcription factor TFIIFbeta)	DRSC16884	0.974	1.13	
TfIIFbeta (Transcription factor TFIIFbeta)	DRSC21447	-0.447	1.32	

In a second layout: 11 of the entries above.
{"gene":"CG14710","DRSC id":"DRSC14933","droplet/nuclear area B-score, replicate 1":-3.98,"droplet/nuclear area B-score, replicate 2":-7.22}
{"gene":"CG14805","DRSC id":"DRSC18554","droplet/nuclear area B-score, replicate 1":-1.16,"droplet/nuclear area B-score, replicate 2":0.0742}
{"gene":"CG18449","DRSC id":"DRSC06754","droplet/nuclear area B-score, replicate 1":-0.487,"droplet/nuclear area B-score, replicate 2":-0.664}
{"gene":"5-HT2B (5-hydroxytryptamine (serotonin) receptor 2B)","DRSC id":"DRSC16360","droplet/nuclear area B-score, replicate 1":-0.236,"droplet/nuclear area B-score, replicate 2":-0.652}
{"gene":"5-HT2B (5-hydroxytryptamine (serotonin) receptor 2B)","DRSC id":"DRSC16362","droplet/nuclear area B-score, replicate 1":-0.101,"droplet/nuclear area B-score, replicate 2":1.12}
{"gene":"CG9344","DRSC id":"DRSC04541","droplet/nuclear area B-score, replicate 1":-0.23,"droplet/nuclear area B-score, replicate 2":0.259}
{"gene":"SCOT (Succinyl-CoA:3-ketoacid CoA transferase)","DRSC id":"DRSC08186","droplet/nuclear area B-score, replicate 1":0.00334,"droplet/nuclear area B-score, replicate 2":-0.521}
{"gene":"Raf (Raf oncogene)","DRSC id":"DRSC18821","droplet/nuclear area B-score, replicate 1":0.728,"droplet/nuclear area B-score, replicate 2":1.89}
{"gene":"Raf (Raf oncogene)","DRSC id":"DRSC23311","droplet/nuclear area B-score, replicate 1":0.169,"droplet/nuclear area B-score, replicate 2":0.151}
{"gene":"CG1648","DRSC id":"DRSC06610","droplet/nuclear area B-score, replicate 1":0.524,"droplet/nuclear area B-score, replicate 2":-0.758,"droplet/nuclear area B-score, replicate 3":-0.796}
{"gene":"Nup358 (Nucleoporin 358kD)","DRSC id":"DRSC14410","droplet/nuclear area B-score, replicate 1":5.22,"droplet/nuclear area B-score, replicate 2":2.22}
